According to patent publication US7977308B2, “Lys-Thr dipeptides and their use” (Sederma, priority 2005, dated 2011):
At least one peptide structure holds a part that was inferred or is arguable (an end, a ring closure or a residue).

What was measured:
[1] = tested on: Normal Human Dermal Fibroblasts (NHDF); experiment: Quantification of Fibronectin synthesis using human dermal fibroblasts (ELISA commercial kit); type: cell-based; conditions: for FIBRONECTIN Mean, percent of negative control: NHDF, 3 days of incubation
Method: (§1) Products were tested from 0.5 to 4 ppm depending of their solubility or toxicity. Pal-KTTKS was tested from 2 to 8 ppm.
(§2) Pal KTTKS (Lys-Thr-Thr-Lys-Ser), Pal KT (Lys-Thr), Pal KS (Lys-Ser) were prepared in Sederma Peptide Synthesis Laboratory. TGF-betal: 10^E-6%, was the positive control for collagen I and Fibronectin studies.
(§3) For this study, di-peptides were linked to the Palmitoic acid and were compared to Pal-KTTKS.
(§4) Normal Human Dermal Fibroblasts (NHDF) were cultivated in culture plates in an appropriate culture medium (i.e. complete DMEM with fetal calf serum). After cell anchorage, cell layers (n=5 replicates) were rinsed with saline buffer and contact with molecules to be tested were performed in a complete DMEM without fetal calf serum. This medium contained ascorbate (sodium salt) and beta-aminopropionitrile, monofumarate. Two independent experimentations were performed for each di-peptide.
(§5) After 3 days of incubation, supernatants were collected and frozen. Survival was estimated on cell layer using the fluorescent probe Hoescht 33258. Collagen I was estimated using an original direct ELISA method. Fibronectin was estimated using ELISA commercial kit.
(§6) Criteria: TGF-b1 should be promoter of Collagen I and Fibronectin synthesis. Statistical analysis were performed on Collagen I data (n=5/assay) or Fibronectin data (n=5/assay). Results obtained with molecules were compared to negative control. All data were ng/10^E6 cells. A Student t test for non paired values was used; significativity was obtained if p<0.05 or p<0.01.
(§7) The percents in the tables above were calculated from ng/10E6 data and compared to the negative control.

[2] = tested on: Normal Human Dermal Fibroblasts (NHDF); experiment: Quantification of Collagen I synthesis using human dermal fibroblasts (direct ELISA); type: cell-based; conditions: for COLLAGEN I Mean, percent of negative control: NHDF, 3 days of incubation
Method: as §1, §2, §3, §4, §5, §6, §7

[3] = over the tested concentrations 0.5 to 4 ppm

CCCCCCCCCCCCCCCC(=O)N[C@@H](CCCCN)C(=O)N[C@@H](CO)C(=O)O [Pal KS]
FIBRONECTIN Mean, percent of negative control ([1]; 0.5 ppm): +3% | FIBRONECTIN Mean, percent of negative control ([1]; 1 ppm): +11% | FIBRONECTIN Mean, percent of negative control ([1]; 2 ppm): +10% | FIBRONECTIN Mean, percent of negative control ([1]; 4 ppm): Precipitated | fibronectin synthesis, overall result in words [1, 3]: does not increase fibronectin synthesis | COLLAGEN I Mean, percent of negative control ([2]; 2 ppm): +7% | COLLAGEN I Mean, percent of negative control ([2]; 4 ppm): Precipitated | collagen I synthesis, overall result in words [2, 3]: does not increase collagen I synthesis
